Source: patent US6136781A (Takeda Chemical Industries, Ltd., priority 1995, dated 2000)

Assay: general procedure: solution-phase peptide synthesis; DCC/HONB (ONB active esters)
Details: coupling step

Substance	step yield
Boc-Arg (Tos)-D-Glu (NHCH2 CH2 Ph)-Tyr(Br-Z)-D-Trp-Leu-OPac	83.3%
Boc-Arg(Tos)-D-Glu((2)-MeOPhp)-Tyr(Br-Z)-D-Trp-Leu-OPac	100.0%
Boc-Arg(Tos)-D-Glu((2)-Pyp)-Tyr(Br-Z)-D-Trp-Leu-OPac	100.0%
Boc-Arg(Tos)-D-Glu((4)-MeOPhp)-Tyr(Br-Z)-D-Trp-Leu-OPac	100.0%
Boc-Arg(Tos)-D-Glu(Bzlp)-Tyr(Br-Z)-D-Trp-Leu-OPac	100.0%
Boc-Arg(Tos)-D-Glu(NHCH2 CH2 Ph)-Asp (NHCH2 Ph)-D-Trp-Leu-OPac	91.3%
Boc-Arg(Tos)-D-Glu(NHCH2 CH2 Ph)-Lys(COPh)-D-Trp-Leu-OPac	96.3%
Boc-Arg(Tos)-D-Glu(NHCH2 Nap(1))-Tyr(Br-Z)-D-Trp-Leu-OPac	99.7%
Boc-Arg(Tos)-D-Glu(NHCH2 Ph)-Tyr(Br-Z)-D-Trp-Leu-OPac	79.6%
Boc-Arg(Tos)-D-Glu(NHCHPh2)-Tyr(Br-Z)-D-Trp-Leu-OPac	100.0%
Boc-Arg(Tos)-D-Glu(Php)-Tyr(Br-Z)-D-Trp-Leu-OPac	98.2%
Boc-Arg(Tos)-D-Lys(COCH2 Ph)-Tyr(Br-Z)-D-Trp-Leu-OPac	35.6%
Boc-Arg(Tos)-D-Lys(SO2 Nap(1))-Tyr(Br-Z)-D-Trp-Leu-OPac	67.4%
Boc-Arg(Tos)-Glu(Php)-Tyr(Br-Z)-D-Trp-Leu-O Pac	100.0%
Boc-Arg(Tos)-Lys(SO2 Nap(2))-Tyr(Br-Z)-D-Trp-Leu-OPac	49.9%
Boc-D-Glu((2)-MeOPhp)-Tyr(Br-Z)-D-Trp-Leu-OPac	42.8%
Boc-D-Glu((2)-Pyp)-Tyr(Br-Z)-D-Trp-Leu-OPac	73.1%
Boc-D-Glu((4)-MeOPhp)-Tyr(Br-Z)-D-Trp-Leu-OPac	68.9%
Boc-D-Glu(Bzlp)-Tyr(Br-Z)-D-Trp-Leu-OPac	74.5%
Boc-D-Glu(NHCH2 CH2 Ph)-Asp(NHCH2 Ph)-D-Trp-Leu-OPac	21.1%
Boc-D-Glu(NHCH2 CH2 Ph)-Lys(COPh)-D-Trp-Leu-OPac	70.8%
Boc-D-Glu(NHCH2 CH2 Ph)-Lys(COPh)-D-Trp-Phe-Arg(Tos)-OPac	100%
Boc-D-Glu(NHCH2 CH2 Ph)-Lys(COPh)-D-Trp-Trp-Arg(Tos)-OPac	100%
Boc-D-Glu(NHCH2 CH2 Ph)-Lys(Cl-Z)-D-Trp-Leu-Arg(Tos)-OPac	90.0%
Boc-D-Glu(NHCH2 CH2 Ph)-Tyr(Br-Z)-D-Lys(Nic)-Leu-OPac	58.5%
Boc-D-Glu(NHCH2 CH2 Ph)-Tyr(Br-Z)-D-Trp-Leu-OPac	60.6%
Boc-D-Glu(NHCH2 CH2 Ph)-Tyr(Br-Z)-D-Trp-Phe-Arg(Tos)-OPac	100%

Substance	step yield
Boc-D-Glu(NHCH2 CH2 Ph)-Tyr(Br-Z)-D-Trp-Trp-Arg(Tos)-OPac	98.0%
Boc-D-Glu(NHCH2 Nap(1))-Tyr(Br-Z)-D-Trp-Leu-OPac	43.5%
Boc-D-Glu(NHCH2 Ph)-Tyr(Br-Z)-D-Trp-Leu-OPac	61.3%
Boc-D-Glu(Php)-Tyr(Br-Z)-D-Trp-Leu-OPac	45.9%
Boc-D-Lys(COCH2 CH2 CH2 CH2 CH2 Ph)-Tyr(Br-Z)-D-Trp-Leu-Arg(Tos)-OPac	80.1%
Boc-D-Lys(COCH2 CH2 CH2 Ph)-Tyr(Br-Z)-D-Trp-Leu-Arg(Tos)-OPac	73.4%
Boc-D-Lys(COCH2 Ph)-Tyr(Br-Z)-D-Trp-Leu-OPac	96.7%
Boc-D-Lys(COPh)-Tyr(Br-Z)-D-Trp-Leu-Arg(Tos)-OPac	57.8%
Boc-D-Lys(SO2 Nap(1))-D-Tyr(Br-Z)-Arg(Tos)-D-Trp-Leu-OPac	98.1%
Boc-D-Lys(SO2 Nap(1))-Tyr(Br-Z)-D-Trp-Leu-OPac	93.2%
Boc-D-Lys(SO2 Nap(2))-Tyr(Br-Z)-D-Trp-Leu-Arg(Tos)-OPac	79.8%
Boc-Glu(Php)-Tyr(Br-Z)-D-Trp-Leu-OPac	69.2%
Boc-K(ClZ)[dW]LR(Tos)-OPac	85.2%
Boc-Lys(COPh)-D-Trp-Phe-Arg(Tos)-OPac	60.5%
Boc-Lys(COPh)-D-Trp-Trp-Arg(Tos)-OPac	90.4%
Boc-Lys(Cl-Z)-D-Glu(Php)-Tyr(Br-Z)-D-Trp-Leu-OPac	100.0%
Boc-Lys(SO2 Nap(1))-D-Tyr(Br-Z)-Arg(Tos)-D-Trp-D-Leu-OPac	100%
Boc-Lys(SO2 Nap(2))-Tyr(Br-Z)-D-Trp-Leu-OPac	100.0%
Boc-Lys(Z, isopropyl)-D-Glu(NHCH2 CH2 Ph)-Tyr(Br-Z)-D-Lys(Nic)-Leu-O Pac	100%
Boc-Y(BrZ)[dW]FR(Tos)-OPac	91.2%
Boc-Y(BrZ)[dW]LR(Tos)-OPac	100%
Boc-Y(BrZ)[dW]WR(Tos)-OPac	83.5%
Boc-[dK](Ac)Y(BrZ)[dW]LR(Tos)-OPac	62.9%
Boc-[dK](ClZ)Y(BrZ)[dW]LR(Tos)-OPac	89.7%
Boc-[dW]Y(BrZ)[dW]LR(Tos)-OPac	91.0%
Boc-[dY](BrZ)R(Tos)[dW]L-OPac	93.7%
Boc-[dY](BrZ)R(Tos)[dW][dL]-OPac	69.1%

Same assay, conditions: cyclisation step

Substance	cyclisation yield
Cyclo(-Arg(Tos)-D-Glu(NHCH2 CH2 Ph)-Lys(Cl-Z)-D-Trp-Leu-)	72.3%
PEPTIDE1{A.[D-Arg(Tos)].F.[dA].W}$PEPTIDE1,PEPTIDE1,1:R1-5:R2$$$V2.0	21.8%
PEPTIDE1{F.[D-Arg(Mtr)].F.[dA].W}$PEPTIDE1,PEPTIDE1,1:R1-5:R2$$$V2.0	5.8%
PEPTIDE1{F.[D-Arg(Tos)].F.[dA].W}$PEPTIDE1,PEPTIDE1,1:R1-5:R2$$$V2.0	10.8%
PEPTIDE1{R.[D-Lys(SO2Nap(1))].Y.[dW].L}$PEPTIDE1,PEPTIDE1,1:R1-5:R2$$$V2.0	30.0%
PEPTIDE1{[Phg].[D-Arg(Tos)].F.[dA].F}$PEPTIDE1,PEPTIDE1,1:R1-5:R2$$$V2.0	13.1%
PEPTIDE1{[Phg].[D-Arg(Tos)].F.[dA].W}$PEPTIDE1,PEPTIDE1,1:R1-5:R2$$$V2.0	28.3%
PEPTIDE1{[Thg(2)].[D-Arg(Tos)].F.[dA].W}$PEPTIDE1,PEPTIDE1,1:R1-5:R2$$$V2.0	13.8%
cyclo(-Arg-D-Glu((2)-MeOPhp)-Tyr-D-Trp-Leu-)	9.20%
cyclo(-Arg-D-Glu((2)-Pyp)-Tyr-D-Trp-Leu-)	12.1%
cyclo(-Arg-D-Glu((4)-MeOPhp)-Tyr-D-Trp-Leu-)	24.4%
cyclo(-Arg-D-Glu(Bzlp)-Tyr-D-Trp-Leu-)	21.6%
cyclo(-Arg-D-Glu(NHCH2 CH2 Ph)-Asp (NHCH2 Ph)-D-Trp-Leu-)	6.72%
cyclo(-Arg-D-Glu(NHCH2 CH2 Ph)-Lys(COPh)-D-Trp-Leu-)	57.6%
cyclo(-Arg-D-Glu(NHCH2 CH2 Ph)-Lys(COPh)-D-Trp-Phe-)	5.7%
cyclo(-Arg-D-Glu(NHCH2 CH2 Ph)-Lys(COPh)-D-Trp-Trp-)	13.9%
cyclo(-Arg-D-Glu(NHCH2 CH2 Ph)-Tyr-D-Trp-Leu-)	30.9%
cyclo(-Arg-D-Glu(NHCH2 CH2 Ph)-Tyr-D-Trp-Phe-)	37.0%
cyclo(-Arg-D-Glu(NHCH2 CH2 Ph)-Tyr-D-Trp-Trp-)	14.8%

Substance	cyclisation yield
cyclo(-Arg-D-Glu(NHCH2 Nap(1))-Tyr-D-Trp-Leu-)	56.7%
cyclo(-Arg-D-Glu(NHCH2 Ph)-Tyr-D-Trp-Leu-)	27.1%
cyclo(-Arg-D-Glu(NHCHPh2)-Tyr-D-Trp-Leu-)	26.1%
cyclo(-Arg-D-Glu(Php)-Tyr-D-Trp-Leu-)	71.7%
cyclo(-Arg-D-Lys (COCH2 CH2 CH2 CH2 CH2 Ph)-Tyr-D-Trp-Leu-)	26.8%
cyclo(-Arg-D-Lys(COCH2 CH2 CH2 Ph)-Tyr-D-Trp-Leu-)	28.7%
cyclo(-Arg-D-Lys(COPh)-Tyr-D-Trp-Leu-)	32.7%
cyclo(-Arg-D-Lys(SO2 Nap(2))-Trp-D-Trp-Leu-)	27.1%
cyclo(-Arg-Glu(Php)-Tyr-D-Trp-Leu-)	22.7%
cyclo(-Arg-Lys(SO2 Nap(2))-Tyr-D-Trp-Leu-)	48.3%
cyclo(-D-Leu-Lys(SO2 Nap(1))-D-Tyr-Arg-D-Trp-)	52.2%
cyclo(-D-Tyr-Arg(Tos)-D-Trp-Leu-D-Lys(SO2 Nap(1))-)	16.9%
cyclo(-D-Tyr-Arg-D-Trp-Leu-D-Lys(SO2 Nap(1))-)	54.3%
cyclo(-Leu-D-Arg-Lys(SO2 Nap(1)-D-Tyr-Trp-)	21.1%
cyclo(-Lys(isopropyl)-D-Glu(NHCH2 CH2 Ph)-Tyr-D-Lys(Nic)-Leu-)	44.3%
cyclo(-Lys-D-Glu(Php)-Tyr-D-Trp-Leu-)	23.5%
cyclo(FR(Tos)F[dA]W)	71.5%
cyclo(F[dR](Tos)F[dF]W)	70.6%
cyclo(F[dR](Tos)F[dL]W)	29.4%

Same assay, conditions: late stage modification step

Substance	step yield
Cyclo(-Arg(Tos)-D-Glu(NHCH2 CH2 Ph)-Lys(CONap(1))-D-Trp-Leu-)	70.0%
PEPTIDE1{F.R.F.[dA].W}$PEPTIDE1,PEPTIDE1,5:R2-1:R1$$$V2.0	63.0%
PEPTIDE1{F.[dR].F.[dA].W}$PEPTIDE1,PEPTIDE1,5:R2-1:R1$$$V2.0	39.0%
PEPTIDE1{[Phg].[dR].F.[dA].W}$PEPTIDE1,PEPTIDE1,5:R2-1:R1$$$V2.0	17.5%
cyclo(-Arg-D-Glu(NHCH2 CH2 Ph)-Lys(CONap(1))-D-Trp-Leu-)	90.7%

Same assay, conditions: whole synthesis

Substance	crude yield
PEPTIDE1{[Thg(2)].[D-Arg(Tos)].F.[dA].W}$PEPTIDE1,PEPTIDE1,1:R1-5:R2$$$V2.0	72.4%

Strings that start with PEPTIDE1 are HELM notation: dots part the residues, brackets hold end groups and non-standard residues. Square brackets hold non-standard residues; d marks the D form. * marks the point of attachment. Tos = Cc1ccc(S(=O)(=O)*)cc1; BrZ = O=C(OCc1ccccc1Br)*; ClZ = O=C(OCc1ccccc1Cl)*; OPac = O=C(CO*)c1ccccc1; Boc = CC(C)(C)OC(=O)*
